Construct, isoform or probe ends are uncertain for at least one entry. The direction of at least one scale is not stated here. Tags and fusion partners may be left off the protein sequences shown.
Molecular target: T1, RecU D88N (Bacillus subtilis) (UniProt P39792)
T1 sequence (looked up, limits assumed): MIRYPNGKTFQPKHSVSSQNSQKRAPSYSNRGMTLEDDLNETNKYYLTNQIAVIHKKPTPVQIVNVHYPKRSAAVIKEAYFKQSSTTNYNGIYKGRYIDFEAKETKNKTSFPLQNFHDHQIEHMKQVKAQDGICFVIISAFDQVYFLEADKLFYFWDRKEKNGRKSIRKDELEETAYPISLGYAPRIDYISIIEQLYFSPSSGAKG
Assay: thermofluor
Conditions: 1:1 molar ratio; Thermofluor: 100 mM MES pH 6.5, 5 ug RecU D88N per well, DNA 1:1 molar, Sypro orange, 25-100 C in 1 C steps; crystals: 0.1 M BICINE pH 9, 10% PEG 6000, 17 C; recombinant protein

Question: For “ACGCAATTGCGT (double strand) [12 bp palindromic duplex]”, which binding signal is on record?
Answer: 0.75 delta Tm, C
